This experiment concerns the target T1, TRIM29 (human (endogenous in DLD-1 and SW480)) (UniProt Q14134).
T1 sequence: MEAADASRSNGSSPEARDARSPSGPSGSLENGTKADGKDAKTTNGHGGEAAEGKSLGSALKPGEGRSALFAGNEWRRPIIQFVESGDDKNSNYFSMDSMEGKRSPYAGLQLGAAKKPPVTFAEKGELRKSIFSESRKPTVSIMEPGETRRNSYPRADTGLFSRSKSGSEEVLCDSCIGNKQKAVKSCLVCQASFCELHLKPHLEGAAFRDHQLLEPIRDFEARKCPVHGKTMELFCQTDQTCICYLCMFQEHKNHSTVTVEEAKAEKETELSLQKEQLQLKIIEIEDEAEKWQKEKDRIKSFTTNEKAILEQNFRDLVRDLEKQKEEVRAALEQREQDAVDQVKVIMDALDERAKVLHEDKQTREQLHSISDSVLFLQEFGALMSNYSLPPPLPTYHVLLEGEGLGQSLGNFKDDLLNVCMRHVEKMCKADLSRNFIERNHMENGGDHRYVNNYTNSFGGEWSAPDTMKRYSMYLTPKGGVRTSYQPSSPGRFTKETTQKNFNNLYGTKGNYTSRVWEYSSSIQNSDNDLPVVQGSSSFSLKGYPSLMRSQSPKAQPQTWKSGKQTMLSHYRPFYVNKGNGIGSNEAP
The experiment can be described thus: co-IP; reciprocal co-IP of endogenous proteins from SW480 and DLD-1 lysates; primary antibody and protein A/G beads at 4 C overnight, washed six times with 1% NP40, Western blot.

Amino acid sequences for entries named in this document (tags omitted). A change or cut given only in a name is not applied to a line headed by its entry. Chains listed by the source or under a name are the forms on record and can include a tag or linker.
pyruvate kinase M1 (P14618-2, form named): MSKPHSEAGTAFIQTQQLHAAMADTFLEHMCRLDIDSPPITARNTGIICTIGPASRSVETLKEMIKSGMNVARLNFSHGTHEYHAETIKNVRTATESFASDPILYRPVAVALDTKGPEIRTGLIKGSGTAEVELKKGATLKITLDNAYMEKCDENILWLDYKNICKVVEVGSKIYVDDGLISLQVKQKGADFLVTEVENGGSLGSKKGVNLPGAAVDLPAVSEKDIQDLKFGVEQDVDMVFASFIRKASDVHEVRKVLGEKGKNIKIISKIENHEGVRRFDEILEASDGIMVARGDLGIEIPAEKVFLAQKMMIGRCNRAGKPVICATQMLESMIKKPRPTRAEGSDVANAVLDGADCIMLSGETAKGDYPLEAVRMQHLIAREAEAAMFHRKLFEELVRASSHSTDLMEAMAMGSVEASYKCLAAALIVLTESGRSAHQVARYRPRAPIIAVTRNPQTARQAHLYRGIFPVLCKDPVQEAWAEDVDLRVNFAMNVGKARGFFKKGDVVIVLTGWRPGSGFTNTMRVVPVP

Results are given in words; binding and its absence hold for the method and conditions named. Binding seen in cells or lysates may run through a third protein. Some binding calls cover weakened binding; strength is not graded here.

With “pyruvate kinase M1 (from UniProt P14618-2 1-531) (enzyme)”, the binding entry is given as “binds”.

The values are drawn from publication PMC7950264.
